Laboratory results as given in article doi:10.1101/713511.
For at least one entry, the source does not settle the construct or the ends of the probe. For some assays here: The comparison behind a weaker result is the experiment's own reference, which may not be listed here. At least one verdict was read from the data and is not stated in words by the source.

Assays:
SERF1a (human) = assay: FRET RNA annealing; details: Kobs 0.062 s-1 vs 0.0056 s-1 without protein
SERF1a K17E (human) = assay: FRET RNA annealing; details: Kobs 0.033 s-1; recombinant protein; label: Cy3 and Cy5

Q: Does “ACUGCUAGAGAUUUUCCACAU / AUGUGGAAAAUCUCUAGCAGU [Cy3-R21(-) + Cy5-R21(+) annealing pair]” bind (SERF1a (human))?
A: binds

Q: Does “ACUGCUAGAGAUUUUCCACAU / AUGUGGAAAAUCUCUAGCAGU [Cy3-R21(-) + Cy5-R21(+) annealing pair]” bind (SERF1a K17E (human))?
A: binds more weakly
